# Laboratory results published in PubChem BioAssay AID1347076 (National Center for Advancing Translational Sciences (NCATS), 2019).
# The whole screen tested about 400,000 compounds, of which about 13,000 (3.2%) were called active. The inconclusive results got no clear call from the source; some entries with a clear call stand among them for comparison. Calls follow the shape of the dose curve; as a rule, active = well fitted cell-killing curve with a large enough effect; inconclusive = small, poorly fitted or top-dose-only effect, or effect the other way; inactive = flat fitted curve, though single readings scatter. Potencies beside an inconclusive call are fits to weak or partial responses and may not hold up.
# Test: qHTS assay for MDR1-selective chemotherapeutics: Primary screen using the drug-selected MDR subline cells KB-V1; also: nearly all actives have a fitted effect of over 60% in size
# Settings: KB-V1 MDR cells viability, CellTiter-Glo, 72 h; activity change, negative = cytotoxicity: at 46.1 µM (top of the series)
# Summary of the method: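 Drug-selected KB-V1 cells, grown in DMEM lacking phenol red with 10% FBS, receive compound titrations; after three days at 37 degrees C, surviving cell ATP is quantified by CellTiter-Glo luminescence and responses normalized and curve-fitted.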
# % is scaled to controls: 0 for no effect and ±100 for the full control effect; potency is read from the fitted curve at half-maximal effect.
SMILES,Potency,"activity change, negative = cytotoxicity"
COc1cccc(CNC(=O)CSc2nc(=O)n(Cc3ccncc3)c3c2CCC3)c1,"inconclusive: 29.1 µM [rising, single point]",
CCC(C(=O)NC1CCCC1)n1c(-c2ccccn2)nc2ccccc21 (configuration not stated),"inconclusive: 3.26 µM [cytotoxic, partial curve, poor fit]",
COc1cc(-c2cnc3c(NC=O)cc(-c4ccsc4)cn23)cc(OC)c1OC,active: 1.3 µM,
CCc1cccc(NC(=O)c2cc3c(s2)-c2ccccc2OC3)c1,"inconclusive: 32.6 µM [cytotoxic, single point]",
C=Cc1ccc(Cn2c(C)c(CNCc3ccc(SC)cc3)c(C(=O)O)c2C)cc1,"inconclusive: 14.6 µM [rising, partial curve]",
CC(=NNc1nc2ccccc2s1)c1ncccn1,active: 1.3 µM,
Nc1ncnc2c1ncn2CCc1ccccc1,"inconclusive: 23.1 µM [cytotoxic, single point]",
Brc1ccc[n+](CCc2ccccc2)c1,inactive,
O=[N+]([O-])c1ccc(CC(Cl)c2ccccn2)cc1 (configuration not stated),inactive,
Cc1ccc(CNC(=O)c2cc3c(-c4ccc(Cl)cc4)nn(C)c3s2)o1,"inconclusive: 16.4 µM [cytotoxic, single point]",
Cc1cc2c(c(=O)n1Cc1ccco1)C(c1ccccc1)C(C#N)=C(N)O2 (configuration not stated),"inconclusive: 16.4 µM [cytotoxic, partial curve, poor fit]",
CN1CCN(c2ccc(C(CC(N)=O)NC(=O)Cc3cccc4ccccc34)cc2[N+](=O)[O-])CC1 (configuration not stated),inactive,
Cc1cc(C)nc(NC(=O)CCN2C(=O)c3ccccc3S2(=O)=O)n1,inactive,
CCn1c(NCc2cc(Br)ccc2NS(=O)(=O)c2ccc(C)cc2)nc2ccccc21,active: 18.4 µM,
Cc1cc(C(=O)Nc2c(F)c(F)c(F)c(F)c2F)n(-c2ccccc2)n1,"inconclusive: 32.6 µM [cytotoxic, partial curve, poor fit]",
Cc1ccccc1/C=C/C1=NCCN1,"inconclusive: 16.4 µM [cytotoxic, single point]",
COc1ccc(N2CCN(C(=O)CCCn3c(=O)[nH]c4cc(Cl)ccc4c3=O)CC2)cc1,"inconclusive: 23.1 µM [cytotoxic, single point]",
CS(=O)(=O)N1CCCC(C(=O)Nc2ccc(F)cc2)C1 (configuration not stated),inactive,
CCOC(=O)Nc1ccc(Cc2ccncc2)cc1,"inconclusive: 18.4 µM [cytotoxic, single point]",
COc1cccc(CNCc2cccc(OC)c2O)c1O,active: 18.4 µM,
O=C(O)Cn1c(=O)n(Cc2ccccc2)c2ccccc21,inactive,
COC(=O)c1c(NC(=O)CSc2nnnn2-c2ccccc2)sc2c1CCC(C(C)(C)C)C2 (configuration not stated),active: 14.6 µM,
C(=N/N1CCN(c2ccccc2)CC1)/c1ccncc1,"inconclusive: 20.6 µM [cytotoxic, partial curve]",
CCOC(=O)N1CCN(C(=O)CSCC(=O)N=c2sc3cc(OC)ccc3n2C)CC1,"inconclusive: 5.17 µM [cytotoxic, partial curve]",

SMILES,Potency,"activity change, negative = cytotoxicity"
O=C(/C=C/c1cccc(C(F)(F)F)c1)NNC(=O)c1ccncc1,inactive,
CN(CC(=O)Nc1ccc(Br)cc1)S(=O)(=O)c1cccc2nsnc12,inactive,
COc1ccccc1CN(C)S(=O)(=O)c1cccs1,"inconclusive: 29.1 µM [rising, single point]",
CCC(c1nnnn1C1CCCC1)N(Cc1cccs1)Cc1cc2cc(C)ccc2[nH]c1=O (configuration not stated),"inconclusive: 18.4 µM [cytotoxic, single point]",
Cc1cc2nc(CCN(Cc3cccnc3)C(=S)Nc3ccccc3)[nH]c2cc1C,"inconclusive: 13 µM [cytotoxic, partial curve]",
CCN1C(=S)N[C@@H](c2ccccc2)C(C(=O)OC)=C1C,inactive,
CN(C)S(=O)(=O)c1cc(C(=O)OCCn2cnc3c2c(=O)n(C)c(=O)n3C)ccc1Cl,inactive,
C/C(=N\NC(=O)COc1ccc(C(C)(C)C)cc1)c1ccc2c(c1)OCCO2,"inconclusive: 18.4 µM [cytotoxic, single point]",
CCOC(=O)C(=CNc1cccc(C)c1C)C(=O)OCC,inactive,
CCOc1ccc(CCNC(=O)C2CCCN(C(=O)N(C)C)C2)cc1OCC (configuration not stated),"inconclusive: 29.1 µM [cytotoxic, single point]",
O=C(C[C@H]1C/C=C\CC[C@@H](Cc2ccc(F)cc2)C(=O)O[C@@H](c2ccccc2)CNC1=O)N[C@@H](CO)Cc1ccccc1,inactive,
COc1ccc(CC(=O)NC(C)c2ccc(Cl)c(Cl)c2)cc1S(=O)(=O)N1CCOCC1 (configuration not stated),active: 23.1 µM,
CC(C)(C)n1nnnc1C(c1cccnc1)N(Cc1ccccc1)Cc1cccs1 (configuration not stated),active: 20.6 µM,
O=S(=O)(c1ccc(F)cc1)N1CCN(CC(O)COc2ccccc2F)CC1 (configuration not stated),inactive,
O=C(Nc1ccc(O)c2c(=O)cc(-c3cccc(Cl)c3)oc12)c1ccccc1Cl,inactive,
O=C(CSc1ccc(-c2cccnc2)nn1)Nc1ccccc1F,"inconclusive: 16.4 µM [cytotoxic, single point]",
CN1C(=O)Cc2cc(S(=O)(=O)CCC(=O)N3CCN(c4ccc(Cl)cc4)CC3)ccc21,inactive,
COc1ccccc1NC(=O)CSc1nc2c(oc3ccccc32)c(=O)n1-c1ccccc1F,inactive,
CCOc1ccc(Cn2nnc(C(=O)Nc3ccc(OC)cc3OC)c2N)cc1,"inconclusive: 18.4 µM [rising, single point]",
Cc1cccc(C(=O)NC(=O)Nc2c(C)cc(C)nc2C)c1,"inconclusive: 16.4 µM [cytotoxic, single point]",
Cc1ccccc1OCC(=O)NCCCNC(=O)c1ccncc1,"inconclusive: 23.1 µM [rising, single point]",
CC(C)CN(Cc1c(O)ccc2c(=O)c(-c3ccccc3)coc12)CC(C)C,"inconclusive: 29.1 µM [cytotoxic, single point]",
N#CC1(c2ccccc2)CCN(S(=O)(=O)c2ccc(OC(F)(F)F)cc2)CC1,"inconclusive: 23.1 µM [cytotoxic, partial curve, poor fit]",
CCOC(=O)C1CC2=C(CCCC2=O)NC1=O (configuration not stated),"inconclusive: 29.1 µM [rising, single point]",

SMILES,Potency,"activity change, negative = cytotoxicity"
CCOC(=O)C1CCN(c2nc3ccccc3nc2Cl)CC1,"inconclusive: 20.6 µM [rising, partial curve, poor fit]",
CCOc1ccc2nc(NC(=S)N(C)C)sc2c1,"inconclusive: 16.4 µM [cytotoxic, single point]",
CCOC(=O)[C@@H]1[C@H]2COc3cc(OC)ccc3[C@H]2N2C(=O)N(c3ccc(OC)cc3)C(=O)[C@]12C,inactive,
Cc1ncc([N+](=O)[O-])n1CCOC(=O)NC(NCc1ccccc1Cl)C(Cl)(Cl)Cl (configuration not stated),active: 7.31 µM,
COC(=O)c1c(-c2cccs2)csc1NC(=O)c1cccnc1,"inconclusive: 18.4 µM [cytotoxic, single point]",
O=C(COC(=O)CN1C(=O)C2CCCCC2C1=O)Nc1c(Cl)cccc1Cl (configuration not stated),,inconclusive: -32.2%
CN(C)CCCN1c2ccccc2Sc2ccc3ccccc3c21,active: 18.4 µM,
COc1ccc(C)cc1NC(=O)c1ccc(S(=O)(=O)N2CCCCC2)cc1,"inconclusive: 16.4 µM [cytotoxic, single point]",
CO/N=C/c1cc([N+](=O)[O-])ccc1Sc1ccc(C)cc1,"inconclusive: 18.4 µM [cytotoxic, single point]",
Cc1onc(-c2ccccc2)c1CNC(=O)Nc1ccc(C(F)(F)F)cc1,"inconclusive: 18.4 µM [cytotoxic, single point]",
O=C(COc1ccccc1C(=O)Nc1ccccc1)c1ccc(F)cc1,"inconclusive: 6.51 µM [cytotoxic, full curve, poor fit]",
COc1ccc(Nc2c3c(nc4ccccc24)CCC3)cc1,active: 20.6 µM,
Cc1cccc(-c2noc(-c3ccccc3C(=O)NCc3ccco3)n2)c1,"inconclusive: 14.6 µM [cytotoxic, partial curve, poor fit]",
O=C(Nc1nc(-c2ccc(Cl)cc2)cs1)c1cccnc1,inactive,
COc1ccc(CN(CCC#N)C(=S)NC(=O)c2ccccc2)cc1,"inconclusive: 14.6 µM [cytotoxic, partial curve, poor fit]",
COc1ccc(S(=O)(=O)N2CCC(C(=O)NCCOc3ccccc3F)CC2)cc1OC,active: 23.1 µM,
CC(C)c1nnc(SCC(=O)N2CCc3ccccc32)n1C,"inconclusive: 10.3 µM [cytotoxic, partial curve]",
O=C(OCC(=O)N1CCCC1)c1ccccc1C(=O)c1ccccc1,"inconclusive: 3.66 µM [rising, single point]",
COC(=O)N/N=C/c1cc(N=Nc2ccccc2Cl)ccc1O,"inconclusive: 25.9 µM [cytotoxic, single point]",
CCn1c(-c2ccc(OC)c(OC)c2)n[nH]c1=S,"inconclusive: 16.4 µM [cytotoxic, partial curve, poor fit]",
COc1ccc2nc(N/C(N)=N/C(=S)Nc3c(C)cccc3C)nc(C)c2c1,"inconclusive: 6.51 µM [cytotoxic, partial curve]",
O=c1cc(-c2ccccc2)[nH]c2ccccc12,"inconclusive: 1.16 µM [cytotoxic, full curve]",
Cc1cccc(OCCCCn2c(C3CC(=O)N(c4ccc(C)cc4C)C3)nc3ccccc32)c1 (configuration not stated),"inconclusive: 18.4 µM [cytotoxic, single point]",
CC1CN(C(=O)c2cc3c(s2)CCC3)CC(C)O1 (configuration not stated),"inconclusive: 23.1 µM [cytotoxic, single point]",

# Single entries from the list.
# Potency with `O=c1cc(-c2ccccc2)[nH]c2ccccc12` is entered as inconclusive: 1.16 µM [cytotoxic, full curve]
# Potency with `Cc1cc(C(=O)Nc2c(F)c(F)c(F)c(F)c2F)n(-c2ccccc2)n1` is entered as inconclusive: 32.6 µM [cytotoxic, partial curve, poor fit]
# Potency with `CCn1c(-c2ccc(OC)c(OC)c2)n[nH]c1=S` is entered as inconclusive: 16.4 µM [cytotoxic, partial curve, poor fit]
# Potency with `C/C(=N\NC(=O)COc1ccc(C(C)(C)C)cc1)c1ccc2c(c1)OCCO2` is entered as inconclusive: 18.4 µM [cytotoxic, single point]
